Paper PMC12446771

Chains of the proteins cited; added tags and fusions are not shown.
UniProt O43306: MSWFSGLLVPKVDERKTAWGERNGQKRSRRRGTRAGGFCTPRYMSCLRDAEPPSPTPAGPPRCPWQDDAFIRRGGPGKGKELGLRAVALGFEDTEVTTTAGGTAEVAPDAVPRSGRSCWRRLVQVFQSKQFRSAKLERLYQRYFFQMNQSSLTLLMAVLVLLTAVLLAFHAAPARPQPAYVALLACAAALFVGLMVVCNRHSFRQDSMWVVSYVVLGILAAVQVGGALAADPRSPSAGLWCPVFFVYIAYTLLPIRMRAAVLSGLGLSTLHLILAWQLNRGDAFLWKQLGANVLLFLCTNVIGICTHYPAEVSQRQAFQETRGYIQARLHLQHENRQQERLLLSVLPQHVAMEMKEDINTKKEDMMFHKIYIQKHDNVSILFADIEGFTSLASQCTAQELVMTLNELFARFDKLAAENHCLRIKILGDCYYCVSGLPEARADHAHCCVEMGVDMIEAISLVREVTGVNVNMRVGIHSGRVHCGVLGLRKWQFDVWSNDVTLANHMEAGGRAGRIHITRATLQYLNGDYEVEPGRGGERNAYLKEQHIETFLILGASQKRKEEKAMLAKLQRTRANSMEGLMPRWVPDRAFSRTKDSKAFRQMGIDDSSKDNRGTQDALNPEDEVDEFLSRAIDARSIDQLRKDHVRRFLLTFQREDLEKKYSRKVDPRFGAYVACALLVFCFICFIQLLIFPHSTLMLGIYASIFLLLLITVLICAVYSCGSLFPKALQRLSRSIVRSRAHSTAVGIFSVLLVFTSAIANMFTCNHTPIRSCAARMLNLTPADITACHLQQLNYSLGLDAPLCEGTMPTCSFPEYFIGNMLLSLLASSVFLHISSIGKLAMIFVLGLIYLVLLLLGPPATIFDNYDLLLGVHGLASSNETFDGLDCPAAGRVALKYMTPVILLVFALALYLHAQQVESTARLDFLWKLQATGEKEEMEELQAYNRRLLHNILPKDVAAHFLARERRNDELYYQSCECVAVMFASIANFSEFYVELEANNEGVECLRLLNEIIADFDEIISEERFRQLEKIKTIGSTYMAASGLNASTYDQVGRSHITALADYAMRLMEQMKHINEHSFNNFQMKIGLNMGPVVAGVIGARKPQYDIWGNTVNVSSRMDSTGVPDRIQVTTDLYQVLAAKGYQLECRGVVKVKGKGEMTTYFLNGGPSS
UniProt O95622: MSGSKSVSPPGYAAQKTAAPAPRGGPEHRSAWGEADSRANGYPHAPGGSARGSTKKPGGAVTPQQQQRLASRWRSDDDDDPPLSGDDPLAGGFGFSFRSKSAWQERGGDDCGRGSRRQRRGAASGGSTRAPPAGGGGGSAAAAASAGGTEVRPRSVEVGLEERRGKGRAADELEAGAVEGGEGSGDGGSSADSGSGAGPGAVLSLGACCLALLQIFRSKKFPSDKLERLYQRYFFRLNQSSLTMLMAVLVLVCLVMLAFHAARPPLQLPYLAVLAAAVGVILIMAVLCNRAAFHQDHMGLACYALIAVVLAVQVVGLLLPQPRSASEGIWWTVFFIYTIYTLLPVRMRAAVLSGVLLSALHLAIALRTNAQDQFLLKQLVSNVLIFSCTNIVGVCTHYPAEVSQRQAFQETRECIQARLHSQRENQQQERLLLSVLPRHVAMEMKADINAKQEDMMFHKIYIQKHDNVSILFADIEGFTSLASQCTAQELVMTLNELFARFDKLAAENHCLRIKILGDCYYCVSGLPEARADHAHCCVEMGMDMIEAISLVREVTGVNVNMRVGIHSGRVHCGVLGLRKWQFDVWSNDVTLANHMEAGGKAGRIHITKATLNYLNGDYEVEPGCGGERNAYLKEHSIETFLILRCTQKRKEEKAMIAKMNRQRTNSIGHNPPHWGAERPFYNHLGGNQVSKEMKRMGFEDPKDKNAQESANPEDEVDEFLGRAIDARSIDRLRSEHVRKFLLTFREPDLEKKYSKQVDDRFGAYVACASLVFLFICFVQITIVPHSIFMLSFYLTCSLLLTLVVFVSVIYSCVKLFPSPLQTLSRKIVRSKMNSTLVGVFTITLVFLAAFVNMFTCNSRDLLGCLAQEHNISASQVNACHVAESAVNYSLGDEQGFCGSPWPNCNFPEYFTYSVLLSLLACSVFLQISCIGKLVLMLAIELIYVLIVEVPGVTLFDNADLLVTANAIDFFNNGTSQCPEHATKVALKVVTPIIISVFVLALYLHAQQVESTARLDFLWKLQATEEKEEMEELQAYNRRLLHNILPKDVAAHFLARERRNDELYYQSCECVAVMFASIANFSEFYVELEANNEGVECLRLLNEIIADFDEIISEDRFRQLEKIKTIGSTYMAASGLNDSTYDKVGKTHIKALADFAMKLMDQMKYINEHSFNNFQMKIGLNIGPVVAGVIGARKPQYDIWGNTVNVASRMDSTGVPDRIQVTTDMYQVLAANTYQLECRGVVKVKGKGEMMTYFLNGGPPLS

B1: calsequestrin 2 (CASQ2) (protein, UniProt P51868 20-413)
chain: EEGLNFPTYDGKDRVVSLSEKNLKQVLKRYDLLCLYYHEPVSSDKVAQKQFQLKEIVLELVAQVLEHKNIGFVMVDSRKEAKLAKRLGFSEEGSLYVLKGGRTIEFDGEFAADVLVEFLLDLIEDPVEIVNNKLEVQAFERIEDQIKLLGFFKNEDSEYYKAFQEAAEHFQPYIKFFATFDKGVAKKLSLKMNEVGFYEPFMDEPSVIPNKPYTEEELVEFVKEHQRPTLRPLRPEDMFETWEDDLNGIHIVAFAEKSDPDGYEFLEILKQVARDNTDNPDLSILWIDPDDFPLLVAYWEKTFKIDLFKPQIGVVNVTDADSVWMEIPDDDDLPTAEELEDWIEDVLSGKINTEDDDNEDEDDDGDNDNDDDDDDDDNSDEDNDDSDDDDDDDE
B2: prostacyclin synthase (enzyme, UniProt Q62969 1-501)
chain: MSWAALLGLLAVLLLLLLLLSRRRARRPGEPPLDLGSIPWLGHALEFGKDAASFLTRMKEKHGDIFTVLVGGRYVTVLLDPHSYDTVVWDLRTRLDFHPYAIFLMERIFDLQLPNFNPSEEKARMKPTLMHKDLQALTEAMYTNLRTVLLGDSTEGGSGWQEKGLLEFSYSSLLSAGYLTLYGVEASPRTHESQALDRDHSADVFRTFRQLDLMLPKLARGSLSVGDKDHACSVKSRLWKLLSPAGLASRADRSSWLESYLRHLEEMGVSEDMQARALVLQLWATQGNMGPTAFWLLLFLLKNPEALDAVHAELKRIVWQAEKPVLQMTALPQKILDSMPVLDSVLNETLRLTAAPFITREVMADLALPMADRREFSLRRGDRLLLFPFLSPQKDPEIYTEPEVFKYNRFLNPDGSEKKDFYKDGKRLKNYNMPWGAGHNQCLGKSYAINSIKQFVVLLLTHFDLELVSEDTEVPEFDLSRYGFGLMQPEEDVPIRYRTRL
B3: RASA3 (protein, UniProt Q9QYJ2 1-834)
chain: MAVEEEGLRVFQSVRIKIGEAKNLPSYPGPNKMRDCYCTVNLDQEEVFRTKIVEKSLCPFYGEDFYCEIPRSFRHLSFYIFDRDVFRRDSIIGKVAIQKEDLQRYHNRDTWFQLQHVDADSEVQGKVHLELRLSEVITDTGVVCHKLAARIFECQGLPIVNGQCDPYATVTLAGPFRSEAKKTKVKKKTNNPQFDEVFYFEVTRPCSYSKKSHFDFEEEDVDKLEIRVDLWNASNLKFGDEFLGELRIPLHVLRYASSYEAWYFLQPRDNGSKSVKPDDLGSLRLNVVYTEDHVFSSEYYSPLRDLLLKSADVEPVSASAAHILGEVCRDKQEAAIPLVRLLLHYGRVVPFISAIASAEVKRTQDPNTIFRGNSLTSKCIDETMKLAGMHYLHVTLKPTIEEICQSHKSCEIDPVKLKDGENLENNMESLRQYVDRIFSVITKSGVSCPTVMCDIFFSLREAAAKRFQDDLDVRYTAVSSFIFLRFFAPAILSPNLFQLTPHHTDPQTSRTLTLISKTIQTLGSLSKSKSASFKESYMATFYEFFNEQKYADAVKNFLDLISSSGRRDPKSIEQPILLKEGFMIKRAQGRKRFGMKNFKKRWFRLTNHEFTYQKSKGDQPLCNIPIENILAVERLEEESFRMKNMFQVIQPERALYIQANNCVEAKDWIDILTKVSQCNQKRLTVFHPSAYLNGHWLCCRASSDTAIGCTPCTGGLPANIQLDIDGDRETERIYSLFNLYMGKLEKMQEACGSKSVYDGPEQEEYSTFIIDDPQETYRTLKQVIAGVGTLEQEHAQYRRNKFKKTRYGSQEHPIGDKSFQNYIRQQSEISTHSI
B4: MARCKSL1 (protein, UniProt Q9EPH2 1-199)
chain: MGSQSSKAPRGDVTAEEAAGASPAKANGQENGHVKSNGDLTPKGEGESPPVNGADEAAGATGDAIEPAPPSQEAEAKGEVAPKETPKKKKKFSFKKPFKLSGLSFKRNRKEGGGDSSASSPTEEEQEQGEISACSDEGTAQEGKAAATPESQEPQAKGAEASAVSKGGDAEEEAGPQAAEPSTPSGPESGPASASAENE
B5: PTPN1 (protein, UniProt P20417 1-432)
chain: MEMEKEFEQIDKAGNWAAIYQDIRHEASDFPCRIAKLPKNKNRNRYRDVSPFDHSRIKLHQEDNDYINASLIKMEEAQRSYILTQGPLPNTCGHFWEMVWEQKSRGVVMLNRIMEKGSLKCAQYWPQKEEKEMVFDDTNLKLTLISEDVKSYYTVRQLELENLATQEAREILHFHYTTWPDFGVPESPASFLNFLFKVRESGSLSPEHGPIVVHCSAGIGRSGTFCLADTCLLLMDKRKDPSSVDIKKVLLEMRRFRMGLIQTADQLRFSYLAVIEGAKFIMGDSSVQDQWKELSHEDLEPPPEHVPPPPRPPKRTLEPHNGKCKELFSNHQWVSEESCEDEDILAREESRAPSIAVHSMSSMSQDTEVRKRMVGGGLQSAQASVPTEEELSPTEEEQKAHRPVHWKPFLVNVCMATALATGAYLCYRVCFH
B6: SPARC (protein, UniProt P16975 18-301)
chain: APQTEAAEEMVAEETVVEETGLPVGANPVQVEMGEFEEGAEETVEEVVAENPCQNHHCKHGKVCELDESNTPMCVCQDPTSCPAPIGEFEKVCSNDNKTFDSSCHFFATKCTLEGTKKGHKLHLDYIGPCKYIAPCLDSELTEFPLRMRDWLKNVLVTLYERDEGNNLLTEKQKLRVKKIHENEKRLEAGDHPVELLARDFEKNYNMYIFPVHWQFGQLDQHPIDGYLSHTELAPLRAPLIPMEHCTTRFFETCDLDNDKYIALEEWAGCFGIKEQDINKDLVI
B7: aquaporin (AQP1) (protein, UniProt P29975 1-269)
chain: MASEIKKKLFWRAVVAEFLAMTLFVFISIGSALGFNYPLERNQTLVQDNVKVSLAFGLSIATLAQSVGHISGAHLNPAVTLGLLLSCQISILRAVMYIIAQCVGAIVASAILSGITSSLLENSLGRNDLARGVNSGQGLGIEIIGTLQLVLCVLATTDRRRRDLGGSAPLAIGLSVALGHLLAIDYTGCGINPARSFGSAVLTRNFSNHWIFWVGPFIGSALAVLIYDFILAPRSSDFTDRMKVWTSGQVEEYDLDADDINSRVEMKPK
B8: Slc12A4 (protein, UniProt Q63632 1-1085)
chain: MPHFTVVPVDGPRRGDYDNLEGLSWVDYGERAEREDSDGQGNHRENSPFLSPLDASRGNDYYDRNLALFEEELDIRPKVSSLLGKLVSYTNLTQGAKEHEEAESGEGGRRRAAKAPSMGTLMGVYLPCLQNIFGVILFLRLTWMVGTAGVLQALLIVLICCCCTLLTAISMSAIATNGVVPAGGSYFMISRSLGPEFGGAVGLCFYLGTTFAAAMYILGAIEILLTYIAPPAAIFYPSGTHDMSSATLNNMRVYGTIFLTFMTLVVFVGVKYVNKFASLFLACVIISILSIYVGGIKSAFDPPVFPVCMLGNRTLSRDQFDICAKTVVVDNETVATRLWTFFCHSPNLTADSCDPYFLLNNVTEIPGIPGAAAGVLQENLWSAYLEKGEVVEKHGLPSTDTLGLKESLSLYVVADIATSFTVLVGIFFPSVTGIMAGSNRSGDLRDAQKSIPVGTILAIVTTSLVYFSSVILFGACIEGVVLRDKYGDGVSRNLVVGTLAWPSPWVIVVGSFFSTCGAGLQSLTGAPRLLQAIAKDNIIPFLRVFGHGKANGEPTWALLLTALIAELGILIASLDMVAPILSMFFLMCYLFVNLACAVQTLLRTPNWRPRFKYYHWALSFLGMSLCLALMFVSSWYYALVAMVIAGMIYKYIEYQGAEKEWGDGIRGLSLSAARYALLRLEEGPPHTKNWRPQLLVLLKLDEDLHVKYPRLLTFASQLKAGKGLTIVGSVIQGSFLESYGEAQAAEQTIKNMMEIEKVKGFCQVVVASKVREGLAHLIQSCGLGGMRHNSVVLGWPYGWRQSEDPRAWKTFIDTVRCTTAAHLALLVPKNIAFYPSNHERYLEGHIDVWWIVHDGGMLMLLPFLLRQHKVWKKCRMRIFTVAQMDDNSIQMKKDLAIFLYHLRLEAEVEVVEMHNSDISAYTYERTLMMEQRSQMLRQMRLTKTERDREAQLVKDRHSALRLESLYSDEEDESVTGADKIQMTWTRDKYMAEPWDPSHAPDNFRELVHIKPDQSNVRRMHTAVKLNEVIVTRSHDARLVLLNMPGPPKNSEGDENYMEFLEVLTEGLERVLLVRGGGREVITIYS
B9: Slc12A7 (protein, UniProt Q5RK27 1-1083)
chain: MPTNFTVVPVEARADGAGDEAAERTEEPGSPESADPACPTPGDGNPRENSPFINNVEVERESYFEGKNMALFEEEMDSNPMVSSLLNKLANYTNLSQGVVEHEEDEDSRRREIKAPRMGTFIGVYLPCLQNILGVILFLRLTWIVGAAGVLESFLIVAMCCTCTMLTAISMSAIATNGVVPAGGSYYMISRSLGPEFGGAVGLCFYLGTTFAGAMYILGTIEIFLTYISPSAAIFQAETADGEAAALLNNMRVYGSCALALMAVVVFVGVKYVNKLALVFLACVVLSILAIYAGVIKTAFAPPDIPVCLLGNRTLANRNFDTCAKMQVVSNGTVTTALWRLFCNGSSLGASCDEYFVQNNVTEIQGIPGVASGVFLDNLWSTYSDKGAFVEKKGVSSVPVSEESRPGGLPYVLTDIMTYFTMLVGIYFPSVTGIMAGSNRSGDLKDAQKSIPTGTILAIVTTSFIYLSCIVLFGACIEGVVLRDKFGEALQGNLVIGMLAWPSPWVIVIGSFFSTCGAGLQSLTGAPRLLQAIARDGIIPFLQVFGHGKANGEPTWALLLTALICETGILIASLDSVAPILSMFFLMCYMFVNLACAVQTLLRTPNWRPRFKFYHWTLSFLGMSLCLALMFICSWYYALFAMLIAGCIYKYIEYRGAEKEWGDGIRGLSLNAARYALLRVEHGPPHTKNWRPQVLVMLNLDSEQCVKHPRLLSFTSQLKAGKGLTIVGSVLEGTYLDKHVEAQRAEENIRSLMSAEKMKGFCQLVVSSNLRDGASHLIQSAGLGGMKHNTVLMAWPEAWKQADNPFSWKNFVDTVRDTTAAHQALLVAKNIDLFPQNQERFSDGNIDVWWIVHDGGMLMLLPFLLRQHKVWRKCRMRIFTVAQVDDNSIQMKKDLQMFLYHLRISAEVEVVEMVENDISAFTYEKTLMMEQRSQMLKQMQLSKNEREREAQLIHDRNTASHTVATARTEAPPTPDKVQMTWTKEKLIAEKHRNKDTGTSGFKDLFSLKPDQSNVRRMHTAVKLNGVVLNKSQDAQLVLLNMPGPPKSRQGDENYMEFLEVLTEGLNRVLLVRGGGREVITIYS
B10: Slc33a1 (protein, UniProt Q6AYY8 1-550)
chain: MSPTISHKDNSRQRRSGMFGHALDMKSGPLPPGGWDDNHQDSVGGEGDREVLLGDVGPGDFPKAKRSYRAELSSILLLLFLYVLQGIPLGLAGSIPLILQSKNVSYTDQAFFSFVFWPFSLKLLWAPLVDAVYFKNFGRRKSWLVPTQYILGIFMIYLSTQVDRLLGNIDGRTPDVVALTVTFFLFEFLAATQDIAVDGWALTMLSRENVGYASTCNSVGQTAGYFLGNVLFLALESADFCNKYLRFQPQPRGIVTLSDFLFFWGTVFLITTTLVALLKKETREASVVKEETQGITDTYKLLFSIIKMPAVLAFCLLILTSKIGFSAADAVTGLKLVEEGVPKEHLALLAVPMVPLQIILPLLISKYTAGPQPLNIFYKAMPYRLLLGLEYALLVWWTPKVEHQGGFPIYYYIIVLLSYALHQVTLYSMYVSIMAFNAKVSDPLIGGTYMTLLNTVSNLGGNWPSTVALWLVDPLTVKECVGASNQNCRTPEAIELCKKLGGSCVTALDGYYVESIVCVLIGFGWWFFLGPKFKKLQDEGPSSWKCKRTN

molecular target: AC6-miniTurbo-FLAG fusion protein (human adenylyl cyclase 6) (human) (UniProt O43306); assay: proximity labelling; BioID: AC-miniTurbo-FLAG baits virally expressed in primary neonatal rat cardiomyocytes, vehicle or 48 h norepinephrine, 50 μM biotin 3 h, RIPA lysis, streptavidin pull-down, LC-MS/MS, SAINT score ≥0.7 against GFP-mT and uninfected controls

Binder	binding
B1	binds
B2	binds

molecular target: AC5-miniTurbo-FLAG fusion protein (human adenylyl cyclase 5) (human) (UniProt O95622); assay: as above

Binder	binding
B3	binds
B4	binds
B1	binds
B5	binds
B6	binds
B7	binds
B8	binds
B9	binds
B10	binds

No constants are given. Whether binding was seen depends on the method and setting. In cells and extracts the contact can be indirect. A yes stands for co-enrichment or nearness to the bait. Other partners may have been found.
